Measurements: the supplement of paper PMC3334620
Over roughly 33,000 sequences, “E-score (-0.5 to 0.5)” has its median near -0.0059; the highest 2% begin near 0.26. This is one part of the list.

molecular target: T1, Cin5 (UniProt P40917); assay: PBM E-score (8-mer binding enrichment) (E-score (-0.5 to 0.5)); higher = stronger / more preferred TF binding; settings: protein concentration: 100 nM; construct: GST-full length
T1 sequence: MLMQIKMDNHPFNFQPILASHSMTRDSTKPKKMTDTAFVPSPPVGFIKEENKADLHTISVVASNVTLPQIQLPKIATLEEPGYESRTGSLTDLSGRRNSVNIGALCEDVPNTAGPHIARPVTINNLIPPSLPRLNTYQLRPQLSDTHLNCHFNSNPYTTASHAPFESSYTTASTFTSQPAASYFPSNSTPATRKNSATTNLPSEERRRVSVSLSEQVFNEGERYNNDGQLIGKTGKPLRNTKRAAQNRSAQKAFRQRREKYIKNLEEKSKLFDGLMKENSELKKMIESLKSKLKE
Procedure: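 Universal 'all 10-mer' protein binding microarrays (Agilent AMADID 015681) probed with GST-tagged S. cerevisiae TFs (full-length or DBD) made by in vitro transcription/translation (PURExpress), about 100-200 nM. Bound TF was detected with fluorescent anti-GST. Each ungapped 8-mer (which stands for itself and its reverse complement) is scored by the PBM enrichment score (E-score), a modified Wilcoxon-Mann-Whitney statistic from -0.5 to +0.5, computed with the Universal PBM Analysis Suite. Scale: above 0.35 generally sequence-specific binding.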

Sequence	PBM E-score
GGGGCTGA	-0.0283
AGCATTCG	0.0238
GGATCTTA	0.0099
ATCATAAC	0.182
CTAGAAGC	-0.186
CCAGTAGA	-0.0719
ACAGATTA	0.102
AGGATGCC	-0.192
AGTAGAAC	-0.162
ACCTTAGA	0.0107
AGAAGCTG	-0.049
CGGAGTCA	0.0932
AGTATAAC	-0.129
CAGGGCCG	-0.0883
ATTGCTGC	0.111
CAACCCTC	-0.167
CCCGGCTA	-0.175
GGTTAACA	0.0603
CTATTAAA	0.00048
AATTAGTG	0.188
CCTGGCAC	-0.263
GAATCCCA	0.13
TCGTTCAA	0.0414
TATCCCGA	0.125
CAGGTCTC	-0.254

Sequence	PBM E-score
CGCGCGGC	0.152
CAAAAAGC	0.0272
ATCTTAAC	0.0469
ATTGTCCA	0.101
AACAATTC	0.111
AGGTTTAG	-0.121
CATGCGAC	0.0154
CAAATTTA	0.135
GAGCACAA	0.147
ACTCGTCC	-0.13
CCGCCGCC	-0.108
GCAAGCAA	0.00274
AATTGGAG	-0.04
CTTCGAAG	-0.0184
GATCGTGC	0.0978
CACCAGAC	-0.0376
GAAAAGCA	-0.0262
AACGGTAG	-0.0598
GCACTGGC	-0.172
ATGCTTAC	0.265
CCACCGCA	-0.0518
TACATTCA	0.0805
TACAGACA	0.0383
TGACGACA	0.0817
CCCGCGCA	-0.00056

Sequence	PBM E-score
CCTTCCGA	-0.161
GGTTTTAC	-0.286
CCCCTACA	-0.219
ACGCAAAA	0.0665
AGTTTCAT	0.218
GCAGCATA	-0.0126
ATCCTCAG	0.0925
CGCCTCGA	-0.042
AACAAAGC	0.127
ATCTTGTG	0.0155
AAGGAAGT	-0.0192
CATAACCG	-0.0972
CCCCGGCC	-0.355
ACGCGAGG	0.0224
AAGCGGTA	0.0319
CCTCTATC	-0.152
AGTGTCAT	0.138
AAGATAAA	0.232
CTCATCAG	0.166
GCTTCACC	-0.2
AGGACCGA	-0.0535
CAGCGTGA	-0.0728
AGGATTTA	0.106
ATGTTTAG	0.216
TCTCCCAA	-0.0907

Sequence	PBM E-score
GACGAAAC	-0.0257
ACATTCCC	-0.0239
AGTGTGGA	-0.0179
ATTCGACG	0.119
ATACCCAC	0.11
TATTCAAA	0.0423
AGGTTTGC	0.0243
ACTATGGC	0.0781
GGTGCGCA	0.0448
ACAGATGT	0.0696
GCGCGCGA	0.104
ACTTGGAG	-0.0532
AGTCGACT	0.254
CGTGTAAG	0.129
TATGACCA	0.01
GATTCCAA	-0.0337
ATACTATC	0.102
GCGTGCCA	-0.15
CCCAGGAC	-0.289
GAAGTGTA	-0.115
CCTCCGTC	-0.264
AATACTAC	0.243
AGTAGACG	0.0975
ACGCTATC	0.146
GTAAGGAC	-0.0448

Sequence	PBM E-score
AAGAGCTT	0.0273
GTAACGGA	0.252
GTTTAAAC	0.0954
ACAGGACG	-0.133
AACTGGAG	-0.0851
AGGTCTGC	-0.312
AACGTATC	0.0199
CCGGTACC	-0.209
ATAGAAAC	0.0523
CCAGCAGG	-0.321
GTGCGGTA	0.0222
CTTACTCA	0.127
AGTAGAGC	-0.152
AGCTCAAT	0.00291
ATAATGAC	-0.0131
TGTCCGAA	-0.0009
AGGTTGAG	-0.229
AACTTCGC	0.0132
CTGCGCCA	0.00777
ACAGGAGC	-0.0257
AACCTCTA	0.0194
CTGTTTTC	-0.0122
CAGTCGAC	0.125
ATAGACCC	0.0556
AGTCTGTA	-0.186

Shown as comma-separated lines: entries from further up
Sequence,PBM E-score
AGCATTCG,0.0238
GGATCTTA,0.0099
CTAGAAGC,-0.186
AGGATGCC,-0.192
AGTAGAAC,-0.162
ACCTTAGA,0.0107
AGAAGCTG,-0.049
CGGAGTCA,0.0932
CAGGGCCG,-0.0883
ATTGCTGC,0.111
CAACCCTC,-0.167
CCCGGCTA,-0.175
CTATTAAA,0.00048
AATTAGTG,0.188
GAATCCCA,0.13
TCGTTCAA,0.0414
TATCCCGA,0.125
CAGGTCTC,-0.254
CAAAAAGC,0.0272
ATTGTCCA,0.101
AACAATTC,0.111
AGGTTTAG,-0.121
CAAATTTA,0.135
GAGCACAA,0.147
ACTCGTCC,-0.13
CCGCCGCC,-0.108
GCAAGCAA,0.00274
CTTCGAAG,-0.0184
GATCGTGC,0.0978
CACCAGAC,-0.0376
GAAAAGCA,-0.0262
AACGGTAG,-0.0598
GCACTGGC,-0.172
ATGCTTAC,0.265
CCACCGCA,-0.0518
TACAGACA,0.0383
TGACGACA,0.0817
CCCGCGCA,-0.00056
CCTTCCGA,-0.161
GGTTTTAC,-0.286
ACGCAAAA,0.0665
AGTTTCAT,0.218
GCAGCATA,-0.0126
ATCCTCAG,0.0925
AACAAAGC,0.127
ATCTTGTG,0.0155
CATAACCG,-0.0972
ACGCGAGG,0.0224
AAGCGGTA,0.0319
CCTCTATC,-0.152
CTCATCAG,0.166
GCTTCACC,-0.2
AGGACCGA,-0.0535
AGGATTTA,0.106
ATGTTTAG,0.216
TCTCCCAA,-0.0907
ACATTCCC,-0.0239
AGTGTGGA,-0.0179
ATTCGACG,0.119
ATACCCAC,0.11
TATTCAAA,0.0423
AGGTTTGC,0.0243
ACTATGGC,0.0781
GGTGCGCA,0.0448
ACAGATGT,0.0696
GCGCGCGA,0.104
ACTTGGAG,-0.0532
AGTCGACT,0.254
CGTGTAAG,0.129
TATGACCA,0.01
GATTCCAA,-0.0337
GCGTGCCA,-0.15
CCCAGGAC,-0.289
GAAGTGTA,-0.115
CCTCCGTC,-0.264
AATACTAC,0.243
AGTAGACG,0.0975
ACGCTATC,0.146
GTAACGGA,0.252
GTTTAAAC,0.0954
ACAGGACG,-0.133
AACTGGAG,-0.0851
AGGTCTGC,-0.312
AACGTATC,0.0199
CCGGTACC,-0.209
ATAGAAAC,0.0523
CCAGCAGG,-0.321
GTGCGGTA,0.0222
CTTACTCA,0.127
AGTAGAGC,-0.152
AGCTCAAT,0.00291
ATAATGAC,-0.0131
TGTCCGAA,-0.0009
AGGTTGAG,-0.229
AACTTCGC,0.0132
CTGCGCCA,0.00777
AACCTCTA,0.0194
CAGTCGAC,0.125
ATAGACCC,0.0556

(list continues)

Sequence	PBM E-score
AGAGTGGC	-0.0896
GGCTCCAA	-0.169
GATGAAGA	-0.0683
GAGCCCGC	-0.19
ATCGCATC	-0.0686
CCAAATCA	0.135
GGGAACTA	0.0248
GGACGTAA	-0.00185
CACGGAGC	-0.00255
ACCCCCGA	-0.195
GCATACCA	-0.0865
ACCCATGA	-0.0761
ACGGATGC	0.0393
TGGATCAA	0.0341
CTTCTGTC	0.0303
CTCTGACC	-0.166
ACATGTAC	0.143
CGCATTTC	0.202
CGGGAAAG	-0.0639
ACGGTCAT	0.0422
ATAACGCA	0.0289
TAACCACA	0.136
GTAGGTAA	0.129
TGTAAACA	0.0928
CATCGCTA	0.0738

Sequence	PBM E-score
CCGGAAAG	0.0289
GGCTAACC	-0.325
GCTCGTCA	-0.254
AAACTAAA	0.199
ACAGCTAC	0.00616
GAAGAAAC	0.12
CTAATGTA	0.0886
CGACACGC	-0.155
ATCGATCG	0.128
ATGATGGA	0.0878
AATAGCTC	-0.0423
CTTATGGA	0.0311
ATCAGCGA	0.0259
GCCCCTCA	-0.12
GGTCATAC	-0.0465
AACGTGAA	-0.0825
CCAATAAC	0.161
CTTACTGC	0.0841
CATACCCC	-0.0352
GCGACGTA	0.0154
ACCGCGAA	0.065
GTTATCAA	0.0472
ACCGGCTG	-0.125
ACGGAACA	0.2
CAAGCTTC	-0.163

Sequence	PBM E-score
CGATCTAG	-0.115
ACTCCGAT	0.0689
ATGGGCTC	-0.0471
AGACCTTG	-0.125
AGTTCTGC	-0.00917
AAACCTCC	-0.161
ACTAATAA	0.221
CGCGTACG	0.00467
AGACTTCG	-0.0328
ACGCCTAA	-0.0107
ACCCCCAA	-0.326
CGTGAGTC	-0.192
CGCCCATC	0.0922
GCTACGGA	-0.165
CAACACGC	-0.0297
AAACAGCA	0.0422
AACAAAGA	0.0369
CTGGAGTA	0.0132
CTGTGCGA	-0.0293
AAAGCGCG	-0.0579
GCAATATA	0.185
CTAGACCC	-0.123
TGTTTCAA	0.114
ATTTCCGA	0.118
AAGTCTGC	-0.286

Sequence	PBM E-score
AAGCACAC	0.00488
ATCCCGGC	0.0403
CTATCGGA	0.00315
CAGGCTGG	-0.223
CTAATCCC	0.0342
AAAGCCGA	-0.0832
CCTACCTA	-0.0447
CAGAGCCC	-0.12
CCGTGGGA	-0.224
CATGATCC	-0.143
GCGCCGAA	0.00697
ACCCAGCC	-0.237
TAGTTAAA	0.108
GGCGGTCA	-0.297
GAGGGTCC	-0.346
AACTCATG	0.148
AATTGCAG	0.0302
CGTATGTA	0.0771
TACTCACA	0.0839
ACGGCACG	-0.0447
CGAGCGAA	0.0585
CGTCGTAG	-0.0874
GTCGAGAC	-0.0383
TTGCCCAA	-0.0922
AGTCCGTG	-0.145

Sequence	PBM E-score
CCTTGACC	-0.0487
GGCGAGAA	0.153
CTGAACTA	-0.012
TAGTCAGA	0.00274
CGCCCATA	0.132
GCCGTGTA	0.0307
CACATAAA	0.183
ATTGATAC	0.247
GGTGTGAC	-0.243
CAACACTC	0.105
CATTCTCG	0.044
CCATGGGC	-0.101
GCCGACCC	-0.322
ACTGTTGC	0.0279
GAGTCAAA	-0.121
AGCTAAGA	-0.0669
ACGTCATC	0.259
GGAGAGGA	-0.226
AGCAAATC	0.106
CCAATCCG	0.156
AGGGTCAC	-0.217
GAGGGTTA	-0.0902
TAAATGTA	0.191
CCCCGCAC	-0.147
AATGTAAC	0.117

Sequence	PBM E-score
AAATCTCA	0.156
TGACCGCA	-0.0789
CAGAATAC	0.068
CTCGAAGA	-0.155
ATCTAGAC	-0.125
GTCTGAGA	-0.205
CATCTCAA	0.0545
GACTTCCA	-0.132
CGAGTGAA	-0.0408
GAAATGTA	0.143
CGTCTGCA	-0.168
CGCTCAGC	-0.0482
AGATATGA	0.272
CAGATACG	0.0732
AAACGCCT	-0.171
CCACGTCA	0.037
GATCGTGA	-0.0171
TGAATTCA	0.133
AGATGTTA	-0.0463
AAAAAGTT	0.0395
GGACATCA	0.0421
AAGGATAA	0.121
ACCGGCTA	-0.145
GGAAGCGA	0.0828
GCTTGACC	-0.0611

Sequence	PBM E-score
AAAGGAGA	-0.131
ATGTCCGG	-0.0461
AGAAACGC	-0.112
AAAGACTC	-0.0736
CCATGCCG	0.0408
ATATTAGA	0.159
GTGTTAAA	-0.121
GGCAGGTA	-0.258
CCAAGGTA	-0.105
AATGGAGG	-0.0517
AGATATAC	0.077
ACAGGAGG	-0.287
GCGACGGA	-0.0442
ATAGAGCC	-0.113
GTTAGGTA	0.242
ATATCGTA	0.222
AAGGACAG	-0.0636
CTGCGAAC	-0.112
ACATAATG	0.204
ATAATTAC	0.365
ACGATAAT	0.162
GTCTTCCA	-0.173
ATCCGCAG	0.19
CGCTATAG	-0.123
GCACGTAA	-0.00694

Sequence	PBM E-score
GTAGTAAA	0.149
ACAACTAC	0.193
GTCTTCAC	-0.199
CTATCAAG	0.0672
GGGGCCTA	-0.347
AAACCCCA	0.176
ACGCGCGC	0.158
CTATCAGA	-0.0903
CTGTGGTC	-0.174
AGCATTAA	0.209
TGTATTAA	0.202
ACGACCAG	-0.0144
AGGCTGGG	-0.199
ACCTCTAA	-0.142
AATACATG	0.195
CGATATTC	0.0444
CTGTGATA	0.0273
ATCCGAAT	0.236
ATAGACTG	0.0413
CGAAACTC	-0.132
AAGGATCT	-0.142
CCGGAACG	0.13
AGCAGGAA	-0.0205
GCAAGAGA	-0.0579
ACCGATTC	-0.131

Sequence	PBM E-score
GCTCGTAC	0.0691
GGCGGTTA	-0.0396
GAATCATC	0.0234
CATCTGAA	0.0026
AGTCAGGC	0.135
CGTCGTCA	0.0152
TCGAACCA	0.00221
AGAGAGAT	0.0741
CCGCTTCA	-0.0755
ATGGGTTA	0.179
GGCCCGAA	-0.00867
AGACCCAC	-0.00266
ATTTTAGA	-0.0939
GGTCCAAA	-0.169
CAGACTTC	-0.168
GCAGACAA	0.108
AGGAGGTA	-0.18
AGCACGCC	-0.0687
AGGAACGA	-0.244
